No constants are given. Whether binding was seen depends on the method and setting. Binding seen in cells or lysates may run through a third protein.

Chains of the proteins cited; added tags and fusions are not shown.
UniProt Q8BGM7: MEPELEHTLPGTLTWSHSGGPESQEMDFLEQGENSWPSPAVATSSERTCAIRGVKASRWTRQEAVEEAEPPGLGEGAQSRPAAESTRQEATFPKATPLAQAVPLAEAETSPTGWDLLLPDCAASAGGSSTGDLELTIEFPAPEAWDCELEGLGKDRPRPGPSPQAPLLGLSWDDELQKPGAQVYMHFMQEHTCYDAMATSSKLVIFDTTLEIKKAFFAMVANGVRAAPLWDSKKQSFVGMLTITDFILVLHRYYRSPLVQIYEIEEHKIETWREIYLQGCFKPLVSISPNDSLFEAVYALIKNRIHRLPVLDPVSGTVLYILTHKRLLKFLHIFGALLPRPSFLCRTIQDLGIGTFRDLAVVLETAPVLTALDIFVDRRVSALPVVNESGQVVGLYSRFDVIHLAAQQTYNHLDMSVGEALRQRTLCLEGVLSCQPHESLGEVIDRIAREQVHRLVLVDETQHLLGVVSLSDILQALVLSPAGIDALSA
UniProt O54950: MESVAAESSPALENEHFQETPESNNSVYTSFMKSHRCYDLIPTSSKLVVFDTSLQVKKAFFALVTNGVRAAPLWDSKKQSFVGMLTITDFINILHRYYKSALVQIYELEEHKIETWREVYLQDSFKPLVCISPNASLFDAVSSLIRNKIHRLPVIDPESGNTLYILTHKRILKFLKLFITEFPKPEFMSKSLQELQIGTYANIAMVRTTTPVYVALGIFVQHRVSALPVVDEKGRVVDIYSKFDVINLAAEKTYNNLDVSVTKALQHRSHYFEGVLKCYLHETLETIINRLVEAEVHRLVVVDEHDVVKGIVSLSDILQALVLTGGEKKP

This assay concerns the target AMPKγ3 (mouse (endogenous in gastrocnemius muscle)) (UniProt Q8BGM7). Description: co-IP; sequential immunoprecipitation: AMPKγ3 antibody first, then AMPKγ1 antibody on the supernatant, from 200 μg mouse gastrocnemius muscle lysate protein; immunoblot of input, supernatant and immunoprecipitates. For orientation: In western blotting, separated proteins are transferred to a membrane and probed.

Consider AMPKγ1 (from UniProt O54950 1-330), for which the binding entry is “no binding”.

The values above are taken from article PMC5241553.
